Assay results published in the supplement of paper PMC4604168 (melanoma cell lines).
The list shows a part of the results. Many values rest on one well or one pass, so single values are uncertain.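 Imaging used 1,536-well plates; nuclei positive for cleaved PARP by antibody were divided by total DNA-stained nuclei to yield the apoptosis fraction. Doses for screening kept most cells viable, and cell lines differ markedly in resting and induced cleaved-PARP levels.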

Experiments:
Test in all cases: cleaved PARP positive nuclei fraction relative to DMSO control; melanoma cells; higher = more apoptosis
Conditions in all cases: library dose: low library concentration; 72 h
[1] = system: 501Mel
[2] = system: A101D
[3] = system: A2058
[4] = system: A375
[5] = system: C32
[6] = system: CBRC008 (line from a melanoma biopsy)
[7] = system: CBRC013 (line from a melanoma biopsy)
[8] = system: CBRC014 (line from a melanoma biopsy)
[9] = system: CBRC016 (line from a melanoma biopsy)
[10] = system: CBRC017 (line from a melanoma biopsy)
[11] = system: COLO792
[12] = system: COLO800
[13] = system: COLO829
[14] = system: G361
[15] = system: IPC-298
[16] = system: IST-MEL1
[17] = system: LB2518-MEL
[18] = system: LOXIMVI
[19] = system: MEL-HO
[20] = system: CBRC034 (line from a melanoma biopsy)

SMILES | cleaved PARP positive nuclei fraction [1] [%] | cleaved PARP positive nuclei fraction [2] [%] | cleaved PARP positive nuclei fraction [3] [%] | cleaved PARP positive nuclei fraction [4] [%] | cleaved PARP positive nuclei fraction [5] [%] | cleaved PARP positive nuclei fraction [6] [%] | cleaved PARP positive nuclei fraction [7] [%] | cleaved PARP positive nuclei fraction [8] [%] | cleaved PARP positive nuclei fraction [9] [%] | cleaved PARP positive nuclei fraction [10] [%] | cleaved PARP positive nuclei fraction [11] [%] | cleaved PARP positive nuclei fraction [12] [%] | cleaved PARP positive nuclei fraction [13] [%] | cleaved PARP positive nuclei fraction [14] [%] | cleaved PARP positive nuclei fraction [15] [%] | cleaved PARP positive nuclei fraction [16] [%] | cleaved PARP positive nuclei fraction [17] [%] | cleaved PARP positive nuclei fraction [18] [%] | cleaved PARP positive nuclei fraction [19] [%] | cleaved PARP positive nuclei fraction [20] [%]
CS(=O)(=O)c1ccc(C(=O)Nc2ccc(Cl)c(-c3ccccn3)c2)c(Cl)c1 [vismodegib] + CO[C@@H]1[C@H](N(C)C(=O)c2ccccc2)C[C@H]2O[C@]1(C)n1c3ccccc3c3c4c(c5c6ccccc6n2c5c31)C(=O)NC4 [Midostaurin] (first compound 1 µM, partner dose 0.08 µM) | 75.1 | 77.5 | 121 | 79.3 | 67.8 | 98.7 | 161 | 75.2 | 49.6 | 134 | 88.3 | 81.5 | 112 | 85.5 | 87.2 | 59.6 | 19.7 | 91.1 | 549 | 
CN(c1ncccc1CNc1nc(Nc2ccc3c(c2)CC(=O)N3)ncc1C(F)(F)F)S(C)(=O)=O + Cc1cc(Nc2cc(N3CCN(C)CC3)nc(/C=C/c3ccccc3)n2)n[nH]1 [ENMD2076] (first compound 0.08 µM, partner dose 0.04 µM) | 85 | 51.8 | 113 | 28.7 | 440 | 33.2 |  | 96.9 | 147 | 94 | 186 | 227 | 177 | 109 | 117 | 92.3 | 96.4 | 65.4 | 123 | 242
CC1(C)CCC(c2ccc(Cl)cc2)=C(CN2CCN(c3ccc(C(=O)NS(=O)(=O)c4ccc(N[C@H](CCN5CCOCC5)CSc5ccccc5)c(S(=O)(=O)C(F)(F)F)c4)cc3)CC2)C1 + CN(NC(=O)CC(=O)NN(C)C(=S)c1ccccc1)C(=S)c1ccccc1 [STA4783] (first compound 0.4 µM, partner dose 0.006 µM) | 63 | 218 | 89.4 | 1010 | 1960 | 1910 | 520 | 11700 | 710 | 902 | 368 | 268 | 256 | 164 | 306 | 356 | 102 | 101 | 34.4 | 
C[C@@H](N)c1ccc(C(=O)Nc2ccnc3[nH]ccc23)cc1 + CC(=O)O[C@@]12CO[C@@H]1C[C@H](O)[C@@]1(C)C(=O)[C@H](O)C3=C(C)[C@@H](OC(=O)[C@H](O)[C@@H](NC(=O)OC(C)(C)C)c4ccccc4)C[C@@](O)([C@@H](OC(=O)c4ccccc4)[C@H]21)C3(C)C [Docetaxel] (first compound 0.4 µM, partner dose 0.0001 µM) | 130 | 138 | 6440 | 5220 | 94.2 | 393 |  | 167 | 216 | 258 | 533 | 250 | 214 | 605 | 197 | 97.1 | 645 | 178 | 168 | 165
NC(=O)c1ccc(N(C(N)=O)c2c(F)cccc2F)nc1-c1ccc(F)cc1F + NC(=O)Nc1cc(-c2cccc(F)c2)sc1C(=O)N[C@H]1CCCNC1 [AZD7762] (first compound 0.4 µM, partner dose 0.02 µM) | 282 | 52.2 | 25 | 90.4 | 118 | 159 | 119 | 110 | 22.4 | 90.2 | 103 | 12.3 | 32 | 93.5 | 45.7 | 286 | 125 | 46.5 | 90.7 | 
C[C@]1(O)C[C@@H](c2nc(-c3ccc4ccc(-c5ccccc5)nc4c3)c3c(N)nccn32)C1 + CO[C@@H]1[C@H](N(C)C(=O)c2ccccc2)C[C@H]2O[C@]1(C)n1c3ccccc3c3c4c(c5c6ccccc6n2c5c31)C(=O)NC4 [Midostaurin] (first compound 0.4 µM, partner dose 0.08 µM) | 96.5 | 195 | 143 | 524 | 112 | 99 | 210 | 113 | 167 | 94.7 | 81.6 | 57.2 | 33.2 | 70.1 | 99.3 | 79.9 | 299 | 53.8 | 240 | 
NC1(c2ccc(-c3nc4ccn5c(=O)[nH]nc5c4cc3-c3ccccc3)cc2)CCC1 + CN(C)S(=O)(=O)c1ccc2c(c1)/C(=C/c1cc3c([nH]1)CCCC3)C(=O)N2 [SU6656] (first compound 0.4 µM, partner dose 0.4 µM) | 178 | 72.2 | 149 | 61.2 | 306 | 100 | 99.6 | 73.6 | 32 | 90.4 | 163 | 215 | 52.7 | 132 | 92.4 | 54.3 | 195 | 12.8 | 86.8 | 
Cn1cnc2c(F)c(Nc3ccc(Br)cc3Cl)c(C(=O)NOCCO)cc21 [selumetinib] + COc1cc(Nc2ncc(F)c(Nc3ccc4c(n3)NC(=O)C(C)(C)O4)n2)cc(OC)c1OC [Tamatinib] (first compound 0.015 µM, partner dose 0.4 µM) | 193 | 23.5 | 203 | 120 | 20.6 | 362 | 163 | 90.6 | 57.3 | 141 | 238 | 76.3 | 259 | 150 | 160 | 73.8 | 188 | 328 | 70.7 | 
NC(=O)c1ccc(N(C(N)=O)c2c(F)cccc2F)nc1-c1ccc(F)cc1F + C[C@]1(c2nc3c(C(N)=O)cccc3[nH]2)CCCN1 [Veliparib] (first compound 0.4 µM, partner dose 1.4 µM) | 105 | 51.3 | 62.1 | 144 | 73.9 | 90.3 |  | 110 | 114 | 104 | 82.6 | 97.4 | 61.8 | 207 | 84.8 | 107 | 114 | 73.3 | 39.1 | 37.6

Limited to cleaved PARP positive nuclei fraction [16] [%] (2 entries from above):
SMILES | cleaved PARP positive nuclei fraction [16] [%]
CN(c1ncccc1CNc1nc(Nc2ccc3c(c2)CC(=O)N3)ncc1C(F)(F)F)S(C)(=O)=O + Cc1cc(Nc2cc(N3CCN(C)CC3)nc(/C=C/c3ccccc3)n2)n[nH]1 [ENMD2076] (first compound 0.08 µM, partner dose 0.04 µM) | 92.3
CC1(C)CCC(c2ccc(Cl)cc2)=C(CN2CCN(c3ccc(C(=O)NS(=O)(=O)c4ccc(N[C@H](CCN5CCOCC5)CSc5ccccc5)c(S(=O)(=O)C(F)(F)F)c4)cc3)CC2)C1 + CN(NC(=O)CC(=O)NN(C)C(=S)c1ccccc1)C(=S)c1ccccc1 [STA4783] (first compound 0.4 µM, partner dose 0.006 µM) | 356
